The inconclusive results got no clear call from the source; some entries with a clear call stand among them for comparison. Potencies beside an inconclusive call are fits to weak or partial responses and may not hold up. Calls of active or inactive are those of the source. The call rests on the fitted dose curve; in most records, active means well fitted activation curve with a large enough effect; inconclusive means small, poorly fitted or top-dose-only effect; inactive means flat fitted curve, though single readings scatter.
assay: Confirmation Concentration-Response Assay for qHTS Assay for Epigenetic Modulators; conditions: murine C127i LDR cells, GFP reporter derepression, 30 h; series mostly up to 46.1 µM; GFP activation: at the top concentration
In short: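 Reporter derepression read as the number of GFP-positive objects (20–120 µm) counted by laser-scanning microplate cytometry after washing. Before the read, compound was applied for 30 hours at 37 °C to LDR cells, murine C127i cells with a silenced GFP locus.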

Potency, active:
COc1cccc(/C=N/Nc2nc(Nc3ccccc3)nc(-n3nc(C)cc3C)n2)c1O 3.98 µM
CCN(CC)c1ccc2c(c1)oc(=O)c1c(Cl)cc(=O)oc12 3.98 µM
O=C(O)CCCCCN1C(=O)/C(=C\c2ccc(-c3ccc(Cl)cc3)o2)SC1=S 7.94 µM
CC(=O)[C@H](CC(C)C)NC(=O)[C@@H](CC(C)C)NC(=O)[C@H](CC(C)C)NC(=O)OCc1ccccc1 3.98 µM

Potency, inconclusive:
Cc1ccc(NC(=O)c2c(C)nc3sc(C(=O)NC4CCCC4)c(N)c3c2-c2ccco2)c(C)c1 25.1 µM [activator, partial curve, poor fit]
COc1ccc(NC(=O)c2sc3nc(-c4ccc(OC)cc4)cc(C(F)(F)F)c3c2N)cc1 2.24 µM [activator, full curve]
COc1ccc(C(=O)/C=C/Sc2nc3ccccc3o2)cc1 3.98 µM [activator, single point]
CN(C)S(=O)(=O)c1cccc(NC(=S)N/N=C/c2ccco2)c1 11.2 µM [activator, full curve, poor fit]
COc1ccc(NC(=O)CSc2nc3c(oc4ccccc43)c(=O)n2Cc2ccco2)cc1Cl 8.91 µM [activator, partial curve, poor fit]

GFP activation, inactive:
CCc1ccc(NC(=O)C2CCC(CNS(=O)(=O)c3ccc4c(c3)CC(C)N4C(C)=O)CC2)cc1 (configuration not stated) 3.66%
Cc1ccc(/C=[N+](\[O-])c2ccc(N(C)C)cc2)c2nsnc12 1.81%
CCOn1c(=O)c[n+]([O-])c2ccccc21 11.4%
